Measured values from patent EP2072528A1.
Results are given in words; binding and its absence hold for the method and conditions named. In cells and extracts the contact can be indirect. Some results given as binding are weak or reduced against the parent protein; the word gives no strength.

By UniProt entry, the sequences of proteins in these tests, tags left out.
UniProt P26641: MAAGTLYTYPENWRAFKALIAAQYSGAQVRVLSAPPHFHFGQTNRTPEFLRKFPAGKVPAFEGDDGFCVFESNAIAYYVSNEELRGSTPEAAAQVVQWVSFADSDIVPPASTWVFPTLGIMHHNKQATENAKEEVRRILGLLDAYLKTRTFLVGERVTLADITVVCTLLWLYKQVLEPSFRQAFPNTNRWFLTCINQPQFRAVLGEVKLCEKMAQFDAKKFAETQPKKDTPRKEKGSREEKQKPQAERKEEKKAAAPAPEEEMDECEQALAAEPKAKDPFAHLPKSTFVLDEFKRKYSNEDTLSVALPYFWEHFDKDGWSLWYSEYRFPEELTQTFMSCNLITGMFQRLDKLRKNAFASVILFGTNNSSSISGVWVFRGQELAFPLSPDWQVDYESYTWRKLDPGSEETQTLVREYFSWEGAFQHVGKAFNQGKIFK
UniProt Q96RP9: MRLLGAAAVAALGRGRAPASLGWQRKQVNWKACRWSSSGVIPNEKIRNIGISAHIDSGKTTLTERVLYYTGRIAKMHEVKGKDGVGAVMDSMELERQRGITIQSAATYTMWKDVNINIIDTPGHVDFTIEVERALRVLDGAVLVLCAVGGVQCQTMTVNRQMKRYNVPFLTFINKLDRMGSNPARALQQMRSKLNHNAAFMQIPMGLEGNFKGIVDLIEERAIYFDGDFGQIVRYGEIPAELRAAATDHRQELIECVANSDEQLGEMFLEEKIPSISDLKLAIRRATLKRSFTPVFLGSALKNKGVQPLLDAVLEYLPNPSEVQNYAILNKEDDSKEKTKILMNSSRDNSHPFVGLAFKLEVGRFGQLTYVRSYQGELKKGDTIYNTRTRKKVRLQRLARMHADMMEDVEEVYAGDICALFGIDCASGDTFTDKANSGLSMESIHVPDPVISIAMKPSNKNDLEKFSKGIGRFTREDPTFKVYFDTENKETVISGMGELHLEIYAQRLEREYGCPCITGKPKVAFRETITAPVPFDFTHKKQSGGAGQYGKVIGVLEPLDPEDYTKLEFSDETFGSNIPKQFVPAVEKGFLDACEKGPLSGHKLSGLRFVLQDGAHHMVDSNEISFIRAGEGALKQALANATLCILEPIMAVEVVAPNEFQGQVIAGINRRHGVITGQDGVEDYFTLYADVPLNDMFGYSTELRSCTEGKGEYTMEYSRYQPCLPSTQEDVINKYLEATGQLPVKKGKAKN

Tests used:
[1] = target: EEF1G Maltose Binding Protein (MBP)-fusion protein (human) (UniProt P26641); test: in vitro pulldown with MBP-fusion protein
[2] = target: GFM1 Maltose Binding Protein (MBP)-fusion protein (human) (UniProt Q96RP9); test: in vitro pulldown with MBP-fusion protein

B1: 212 amino acid residue central fragment of human MuRF2 (MuRF2 Bcc, B-Box + coiled-coil domain) (protein)
chain: KSDQPMCEEHEEERINIYCLNCEVPTCSLCKVFGAHKDCQVAPLTHVFQRQKCELSDGIAILVGSNDRVQGVISQLEDTCKTIEECCRKQKQELCEKFDYLYGILEEKRNEMTQVITRTQEEKLEHVRALIKKYSDHLENVSKLVESGIQFMDEPEMAVFLQNAKTLLKKISEASKAFQMEKIEHGYENMNHFTVNLNREEKIIREIDFYRE
B1 was tested, and the binding [1] was “binds” and the binding [2] was “binds”.
